From the supplement of paper PMC10849652 come the findings set out here.

The chains behind the UniProt entries cited, without tags or fusion partners. Where a name states a change or a piece, a line headed by the entry shows the natural chain unless it says otherwise.
UniProt Q92504: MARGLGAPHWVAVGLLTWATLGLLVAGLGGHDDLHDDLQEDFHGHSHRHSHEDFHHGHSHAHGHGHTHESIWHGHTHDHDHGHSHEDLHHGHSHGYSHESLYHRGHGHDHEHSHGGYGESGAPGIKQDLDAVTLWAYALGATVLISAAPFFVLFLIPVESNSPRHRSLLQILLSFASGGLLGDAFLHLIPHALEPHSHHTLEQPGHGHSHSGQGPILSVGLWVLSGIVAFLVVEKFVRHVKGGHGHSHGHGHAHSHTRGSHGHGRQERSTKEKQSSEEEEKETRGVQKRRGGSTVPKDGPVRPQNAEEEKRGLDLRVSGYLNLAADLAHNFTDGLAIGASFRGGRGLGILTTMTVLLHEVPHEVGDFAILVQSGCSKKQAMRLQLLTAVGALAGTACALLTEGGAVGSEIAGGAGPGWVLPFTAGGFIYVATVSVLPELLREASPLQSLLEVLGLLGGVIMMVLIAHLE
UniProt P08195: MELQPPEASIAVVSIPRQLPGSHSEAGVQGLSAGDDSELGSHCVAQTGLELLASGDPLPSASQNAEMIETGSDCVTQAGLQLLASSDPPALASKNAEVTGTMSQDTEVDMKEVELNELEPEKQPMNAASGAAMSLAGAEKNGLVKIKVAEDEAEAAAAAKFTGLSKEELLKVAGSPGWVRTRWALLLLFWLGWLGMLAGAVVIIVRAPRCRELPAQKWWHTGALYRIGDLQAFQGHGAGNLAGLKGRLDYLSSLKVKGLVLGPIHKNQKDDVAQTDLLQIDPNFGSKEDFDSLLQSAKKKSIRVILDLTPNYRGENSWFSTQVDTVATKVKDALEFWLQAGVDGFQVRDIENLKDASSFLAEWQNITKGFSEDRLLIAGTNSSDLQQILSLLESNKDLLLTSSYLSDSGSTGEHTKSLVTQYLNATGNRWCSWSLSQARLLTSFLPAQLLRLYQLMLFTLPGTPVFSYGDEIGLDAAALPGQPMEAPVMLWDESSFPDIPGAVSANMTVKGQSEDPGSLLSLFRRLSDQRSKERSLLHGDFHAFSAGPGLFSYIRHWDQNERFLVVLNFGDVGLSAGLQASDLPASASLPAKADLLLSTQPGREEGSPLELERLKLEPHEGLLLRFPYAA
UniProt Q9H2H9: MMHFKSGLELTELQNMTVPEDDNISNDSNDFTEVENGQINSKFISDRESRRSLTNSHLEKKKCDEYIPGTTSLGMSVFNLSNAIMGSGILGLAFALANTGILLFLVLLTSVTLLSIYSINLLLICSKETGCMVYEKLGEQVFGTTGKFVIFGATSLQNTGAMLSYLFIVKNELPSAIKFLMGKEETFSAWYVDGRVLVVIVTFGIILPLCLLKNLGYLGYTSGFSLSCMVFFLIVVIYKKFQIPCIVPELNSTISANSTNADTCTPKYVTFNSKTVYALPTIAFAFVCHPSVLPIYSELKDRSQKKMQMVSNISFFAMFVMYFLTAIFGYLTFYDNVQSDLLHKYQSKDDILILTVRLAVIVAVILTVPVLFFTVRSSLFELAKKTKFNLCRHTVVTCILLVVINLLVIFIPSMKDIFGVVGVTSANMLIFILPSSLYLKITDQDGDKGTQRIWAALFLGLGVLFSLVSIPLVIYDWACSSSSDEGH
UniProt Q02978: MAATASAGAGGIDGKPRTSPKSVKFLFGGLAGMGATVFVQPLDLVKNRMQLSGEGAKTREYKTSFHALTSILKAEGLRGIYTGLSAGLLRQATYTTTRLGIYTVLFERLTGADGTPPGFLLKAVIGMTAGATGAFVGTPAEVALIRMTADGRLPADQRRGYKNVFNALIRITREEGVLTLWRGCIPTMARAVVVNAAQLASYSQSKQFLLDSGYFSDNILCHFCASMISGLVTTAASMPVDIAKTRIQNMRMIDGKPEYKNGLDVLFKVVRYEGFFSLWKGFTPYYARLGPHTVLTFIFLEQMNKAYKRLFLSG
UniProt Q9BZJ4: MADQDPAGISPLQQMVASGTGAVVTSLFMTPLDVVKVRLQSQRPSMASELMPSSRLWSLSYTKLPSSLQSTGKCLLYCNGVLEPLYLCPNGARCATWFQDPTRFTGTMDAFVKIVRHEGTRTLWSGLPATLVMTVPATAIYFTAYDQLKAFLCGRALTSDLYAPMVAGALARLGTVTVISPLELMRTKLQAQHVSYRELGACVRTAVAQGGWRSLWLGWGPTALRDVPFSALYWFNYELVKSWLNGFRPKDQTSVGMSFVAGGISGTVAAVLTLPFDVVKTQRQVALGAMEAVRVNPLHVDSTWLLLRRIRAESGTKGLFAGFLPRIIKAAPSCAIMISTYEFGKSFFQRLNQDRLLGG
UniProt F5GZS6: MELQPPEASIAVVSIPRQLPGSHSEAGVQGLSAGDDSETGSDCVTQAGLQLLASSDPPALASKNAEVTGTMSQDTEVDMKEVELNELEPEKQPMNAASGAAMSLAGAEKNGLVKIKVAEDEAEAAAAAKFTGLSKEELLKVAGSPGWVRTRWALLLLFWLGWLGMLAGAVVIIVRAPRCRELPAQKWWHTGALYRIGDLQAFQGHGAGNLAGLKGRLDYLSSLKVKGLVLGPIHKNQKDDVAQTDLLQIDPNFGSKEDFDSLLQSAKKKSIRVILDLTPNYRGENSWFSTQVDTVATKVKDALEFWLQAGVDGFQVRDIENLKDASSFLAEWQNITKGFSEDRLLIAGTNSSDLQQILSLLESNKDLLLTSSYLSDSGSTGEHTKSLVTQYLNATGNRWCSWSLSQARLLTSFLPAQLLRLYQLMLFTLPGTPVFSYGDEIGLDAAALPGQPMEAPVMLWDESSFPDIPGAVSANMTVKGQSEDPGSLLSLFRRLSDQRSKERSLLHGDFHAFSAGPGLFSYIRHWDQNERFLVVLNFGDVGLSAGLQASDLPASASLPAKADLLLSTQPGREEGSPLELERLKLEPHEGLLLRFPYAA
UniProt Q99717: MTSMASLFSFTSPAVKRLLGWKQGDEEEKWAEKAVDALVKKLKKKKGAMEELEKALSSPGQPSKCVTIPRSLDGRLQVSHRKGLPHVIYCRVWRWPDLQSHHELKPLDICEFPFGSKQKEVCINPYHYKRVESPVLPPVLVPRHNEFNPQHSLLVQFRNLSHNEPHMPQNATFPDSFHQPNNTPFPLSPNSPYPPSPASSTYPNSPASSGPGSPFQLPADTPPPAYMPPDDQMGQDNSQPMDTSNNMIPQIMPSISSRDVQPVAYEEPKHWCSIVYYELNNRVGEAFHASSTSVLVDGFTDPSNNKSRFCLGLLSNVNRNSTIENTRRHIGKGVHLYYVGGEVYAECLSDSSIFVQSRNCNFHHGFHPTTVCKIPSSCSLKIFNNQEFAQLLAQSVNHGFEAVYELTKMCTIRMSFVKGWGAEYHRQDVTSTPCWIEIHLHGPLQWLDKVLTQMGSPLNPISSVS
UniProt Q6P1K1: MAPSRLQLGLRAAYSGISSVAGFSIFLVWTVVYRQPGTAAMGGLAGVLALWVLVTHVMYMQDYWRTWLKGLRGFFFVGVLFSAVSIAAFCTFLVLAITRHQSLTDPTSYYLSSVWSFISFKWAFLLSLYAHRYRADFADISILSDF
UniProt O00400: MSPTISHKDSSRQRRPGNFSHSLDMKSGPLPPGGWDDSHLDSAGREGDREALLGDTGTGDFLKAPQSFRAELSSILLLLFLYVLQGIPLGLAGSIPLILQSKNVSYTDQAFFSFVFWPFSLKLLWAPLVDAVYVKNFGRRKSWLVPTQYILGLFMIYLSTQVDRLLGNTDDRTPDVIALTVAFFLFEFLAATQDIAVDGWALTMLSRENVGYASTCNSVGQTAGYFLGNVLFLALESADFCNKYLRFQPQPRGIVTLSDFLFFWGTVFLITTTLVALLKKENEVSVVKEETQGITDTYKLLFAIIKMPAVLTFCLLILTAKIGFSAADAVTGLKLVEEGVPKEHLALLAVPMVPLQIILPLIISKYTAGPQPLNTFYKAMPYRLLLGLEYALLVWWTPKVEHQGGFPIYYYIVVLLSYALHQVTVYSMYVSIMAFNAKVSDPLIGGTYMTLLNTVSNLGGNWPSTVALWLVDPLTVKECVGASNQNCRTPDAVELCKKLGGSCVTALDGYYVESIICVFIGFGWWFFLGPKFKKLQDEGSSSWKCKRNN
UniProt Q9BSK2: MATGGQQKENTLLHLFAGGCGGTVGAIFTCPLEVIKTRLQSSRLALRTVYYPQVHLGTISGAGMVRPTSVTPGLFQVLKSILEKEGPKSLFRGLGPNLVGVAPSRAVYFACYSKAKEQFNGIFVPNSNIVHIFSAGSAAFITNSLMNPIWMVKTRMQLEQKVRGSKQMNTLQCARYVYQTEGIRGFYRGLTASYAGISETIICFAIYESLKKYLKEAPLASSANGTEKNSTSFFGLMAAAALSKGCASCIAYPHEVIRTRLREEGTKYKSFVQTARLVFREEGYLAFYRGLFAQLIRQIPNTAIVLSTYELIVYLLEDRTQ
UniProt Q96AG3: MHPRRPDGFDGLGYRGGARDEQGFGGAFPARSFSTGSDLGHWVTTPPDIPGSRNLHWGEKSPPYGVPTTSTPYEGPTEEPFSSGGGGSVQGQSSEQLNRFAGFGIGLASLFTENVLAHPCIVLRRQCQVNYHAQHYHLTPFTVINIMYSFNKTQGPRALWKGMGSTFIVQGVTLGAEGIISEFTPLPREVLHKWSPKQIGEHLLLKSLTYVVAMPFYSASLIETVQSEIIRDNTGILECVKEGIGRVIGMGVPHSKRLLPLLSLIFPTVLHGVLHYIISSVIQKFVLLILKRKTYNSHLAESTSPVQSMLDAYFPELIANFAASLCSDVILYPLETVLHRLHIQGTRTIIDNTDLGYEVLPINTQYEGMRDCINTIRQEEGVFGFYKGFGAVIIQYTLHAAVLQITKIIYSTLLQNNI
UniProt Q6KCM7: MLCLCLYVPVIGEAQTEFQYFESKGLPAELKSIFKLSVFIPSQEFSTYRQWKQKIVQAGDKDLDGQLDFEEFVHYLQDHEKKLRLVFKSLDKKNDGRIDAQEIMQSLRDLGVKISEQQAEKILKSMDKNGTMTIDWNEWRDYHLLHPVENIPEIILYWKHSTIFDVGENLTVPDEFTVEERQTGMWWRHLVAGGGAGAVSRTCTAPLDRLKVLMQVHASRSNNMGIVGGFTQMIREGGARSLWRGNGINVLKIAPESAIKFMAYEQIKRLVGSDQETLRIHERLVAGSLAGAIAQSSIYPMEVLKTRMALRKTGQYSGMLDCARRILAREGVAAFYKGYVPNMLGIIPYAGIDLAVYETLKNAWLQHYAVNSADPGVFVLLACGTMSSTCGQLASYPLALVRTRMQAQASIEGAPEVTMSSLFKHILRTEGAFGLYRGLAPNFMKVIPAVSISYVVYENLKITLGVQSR
UniProt Q8IXU6: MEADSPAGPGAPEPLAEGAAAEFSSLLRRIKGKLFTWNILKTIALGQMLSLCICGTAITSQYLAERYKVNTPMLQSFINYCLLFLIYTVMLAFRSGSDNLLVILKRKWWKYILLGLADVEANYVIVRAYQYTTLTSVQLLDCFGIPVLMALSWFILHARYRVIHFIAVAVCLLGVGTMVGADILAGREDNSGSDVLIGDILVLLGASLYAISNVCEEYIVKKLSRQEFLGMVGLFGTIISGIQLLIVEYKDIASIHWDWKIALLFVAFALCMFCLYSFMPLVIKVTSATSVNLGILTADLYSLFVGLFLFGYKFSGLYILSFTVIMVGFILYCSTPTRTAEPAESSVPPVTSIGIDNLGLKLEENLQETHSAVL
UniProt Q8TBP6: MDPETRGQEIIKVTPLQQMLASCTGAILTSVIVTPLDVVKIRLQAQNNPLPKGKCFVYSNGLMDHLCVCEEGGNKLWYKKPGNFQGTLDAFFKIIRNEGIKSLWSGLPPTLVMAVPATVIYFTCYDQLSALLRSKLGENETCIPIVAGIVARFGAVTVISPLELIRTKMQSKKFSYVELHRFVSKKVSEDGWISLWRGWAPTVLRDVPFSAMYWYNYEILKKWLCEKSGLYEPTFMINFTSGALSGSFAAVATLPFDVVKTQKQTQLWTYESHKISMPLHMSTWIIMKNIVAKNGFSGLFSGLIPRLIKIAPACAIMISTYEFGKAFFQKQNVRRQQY
UniProt P48029: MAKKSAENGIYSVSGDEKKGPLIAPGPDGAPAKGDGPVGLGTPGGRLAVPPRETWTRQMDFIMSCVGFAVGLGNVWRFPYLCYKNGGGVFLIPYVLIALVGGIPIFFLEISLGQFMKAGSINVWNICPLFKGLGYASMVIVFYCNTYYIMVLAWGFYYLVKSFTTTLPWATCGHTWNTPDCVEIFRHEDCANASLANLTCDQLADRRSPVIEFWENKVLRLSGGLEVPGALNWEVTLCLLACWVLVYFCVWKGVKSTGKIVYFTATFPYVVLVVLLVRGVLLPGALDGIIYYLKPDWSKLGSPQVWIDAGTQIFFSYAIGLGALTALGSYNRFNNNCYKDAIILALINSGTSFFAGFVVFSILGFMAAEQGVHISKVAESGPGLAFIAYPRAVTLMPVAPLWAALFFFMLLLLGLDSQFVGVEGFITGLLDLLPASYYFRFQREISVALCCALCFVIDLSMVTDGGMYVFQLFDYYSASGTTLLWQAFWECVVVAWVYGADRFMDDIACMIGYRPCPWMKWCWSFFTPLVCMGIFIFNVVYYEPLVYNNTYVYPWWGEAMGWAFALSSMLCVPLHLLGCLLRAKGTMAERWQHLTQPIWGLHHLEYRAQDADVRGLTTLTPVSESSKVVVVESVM

This is one part of the list.

Compound in one test: Cc1cn(-c2cc(NC(=O)c3ccc(C)c(Nc4nccc(-c5cccnc5)n4)c3)cc(C(F)(F)F)c2)cn1 [nilotinib]
The test can be described thus: log2 fold change, soluble protein after heating vs DMSO (PISA); higher = thermal stabilisation; K562 lysate, 10 uM; active = over 0.2 and 3.5 SD of the protein, either way, in both replicates (recomputed). An outline of the steps:
(§1)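 Dounce homogenisation of K562 pellets in PBS pH 7.4 with 1 mM MgCl2 produced a crude extract, used at 1 mg/mL protein. Exposure to 10 μM compound lasted 30 min, and aliquots were then heated for 3 min across 48°C-58°C, pooled and brought to 0.5% NP-40 at 4°C. The supernatant after 21,000xg for 90 min was quantified by TMTpro 16plex LC-MS/MS with channel sums equalised. Duplicate values are given as log-two fold change in thermal stability relative to solvent controls.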
For the target SLC39A7 (UniProt Q92504), the log2 fold change was inactive: 0.

Turning to SLC38A9 (UniProt Q8NBW4), the log2 fold change was inactive: 0.036.

Take SLU7 (UniProt O95391): the log2 fold change is inactive: -0.052.

Consider SLC30A6 isoform 2 (UniProt Q6NXT4), for which the log2 fold change was inactive: -0.029.

As to SLC25A24 (UniProt Q6NUK1), the log2 fold change is inactive: 0.002.

On to SLC3A2 isoform 3 (UniProt P08195), for which the log2 fold change is inactive: 0.035.

In the case of SLC38A1 (UniProt Q9H2H9), the log2 fold change is inactive: -0.001.

As to SLC4A1AP (UniProt Q9BWU0), the log2 fold change was inactive: -0.018.

Take SLC25A5 (UniProt P05141): the log2 fold change is inactive: 0.023.

Consider SLC35F6 (UniProt Q8N357), for which the log2 fold change was inactive: 0.009.

As to SLC25A11 (UniProt Q02978), the log2 fold change is inactive: -0.02.

As to SLC66A2 (UniProt Q8N2U9), the log2 fold change is inactive: 0.09.

As to SLC40A1 (UniProt Q9NP59), the log2 fold change is inactive: 0.009.

SLC25A39 (UniProt Q9BZJ4): the log2 fold change is inactive: -0.035.

For the target SLC39A8 (UniProt Q9C0K1), the log2 fold change is inactive: -0.011.

As for SLC3A2 (UniProt F5GZS6), the log2 fold change was inactive: -0.114.

In the case of SLC2A3 (UniProt P11169), the log2 fold change was inactive: 0.007.

With SLC66A1 (UniProt Q6ZP29), the log2 fold change is inactive: 0.133.

Take SMAD5 (UniProt Q99717): the log2 fold change was inactive: -0.004.

As to SLC48A1 (UniProt Q6P1K1), the log2 fold change was inactive: -0.425.

As to SLC33A1 (UniProt O00400), the log2 fold change is inactive: 0.142.

As to SLC25A33 (UniProt Q9BSK2), the log2 fold change is inactive: 0.029.

For the target SLC25A22 (UniProt Q9H936), the log2 fold change was inactive: 0.013.

As for SLC35C1 (UniProt Q96A29), the log2 fold change is inactive: -0.134.

Turning to SLC39A10 (UniProt Q9ULF5), the log2 fold change was inactive: -0.027.

As to SLC25A46 (UniProt Q96AG3), the log2 fold change is inactive: -0.05.

For SLC4A7 isoform 7 (UniProt Q9Y6M7), the log2 fold change was inactive: 0.022.

On to SLC25A25 isoform 3 (UniProt Q6KCM7), for which the log2 fold change was inactive: 0.027.

On to SLC35F2 (UniProt Q8IXU6), for which the log2 fold change was inactive: 0.04.

Turning to SLC35B4 (UniProt Q969S0), the log2 fold change was inactive: 0.015.

Regarding SLC9A8 isoform 2 (UniProt Q9Y2E8), the log2 fold change is inactive: 0.

For SLC39A14 (UniProt Q15043), the log2 fold change was inactive: -0.027.

For the target SMAP (UniProt O00193), the log2 fold change is inactive: 0.005.

SLC25A51 (UniProt Q9H1U9): the log2 fold change is inactive: 0.043.

Consider SLC7A5 (UniProt Q01650), for which the log2 fold change was inactive: 0.022.

As to SLC38A10 (UniProt Q9HBR0), the log2 fold change was inactive: 0.072.

As to SLC25A40 (UniProt Q8TBP6), the log2 fold change was inactive: 0.013.

As to SLC6A8 isoform 2 (UniProt P48029), the log2 fold change is inactive: 0.1.

Compound in another test: Cc1nc(Nc2n[nH]c3c2CN(C(=O)N[C@H](CN(C)C)c2ccccc2)C3(C)C)c2sccc2n1
The description is as above. An outline of the steps:
as §1
Regarding SLC39A7 (UniProt Q92504), the log2 fold change is inactive: 0.026.

In the case of SLC38A9 (UniProt Q8NBW4), the log2 fold change is inactive: 0.034.

With SLU7 (UniProt O95391), the log2 fold change was inactive: 0.045.

On to SLC30A6 isoform 2 (UniProt Q6NXT4), for which the log2 fold change is inactive: 0.118.

In the case of SLC25A24 (UniProt Q6NUK1), the log2 fold change was inactive: -0.018.

As to SLC3A2 isoform 3 (UniProt P08195), the log2 fold change was inactive: -0.015.

In the case of SLC38A1 (UniProt Q9H2H9), the log2 fold change is inactive: 0.007.

Turning to SLC4A1AP (UniProt Q9BWU0), the log2 fold change was inactive: 0.04.

Turning to SLC25A5 (UniProt P05141), the log2 fold change was inactive: 0.019.

With SLC35F6 (UniProt Q8N357), the log2 fold change was inactive: -0.037.

SLC25A11 (UniProt Q02978): the log2 fold change is inactive: 0.019.

With SLC66A2 (UniProt Q8N2U9), the log2 fold change was inactive: 0.005.

In the case of SLC40A1 (UniProt Q9NP59), the log2 fold change was inactive: 0.131.

As to SLC25A39 (UniProt Q9BZJ4), the log2 fold change was inactive: 0.091.

Turning to SLC39A8 (UniProt Q9C0K1), the log2 fold change is inactive: 0.065.

Regarding SLC3A2 (UniProt F5GZS6), the log2 fold change was inactive: -0.094.

Consider SLC2A3 (UniProt P11169), for which the log2 fold change is inactive: -0.023.

On to SLC66A1 (UniProt Q6ZP29), for which the log2 fold change is inactive: 0.088.

As to SMAD5 (UniProt Q99717), the log2 fold change is inactive: 0.043.

In the case of SLC48A1 (UniProt Q6P1K1), the log2 fold change is inactive: 0.132.

Turning to SLC33A1 (UniProt O00400), the log2 fold change was inactive: -0.011.

Consider SLC25A33 (UniProt Q9BSK2), for which the log2 fold change is inactive: 0.042.

In the case of SLC25A22 (UniProt Q9H936), the log2 fold change was inactive: -0.018.

Take SLC35C1 (UniProt Q96A29): the log2 fold change is inactive: 0.217.

Consider SLC39A10 (UniProt Q9ULF5), for which the log2 fold change was inactive: 0.009.

As to SLC25A46 (UniProt Q96AG3), the log2 fold change was inactive: -0.002.

SLC4A7 isoform 7 (UniProt Q9Y6M7): the log2 fold change is inactive: -0.023.

Turning to SLC25A25 isoform 3 (UniProt Q6KCM7), the log2 fold change is inactive: -0.015.

Take SLC35F2 (UniProt Q8IXU6): the log2 fold change is inactive: 0.053.

In the case of SLC35B4 (UniProt Q969S0), the log2 fold change was inactive: 0.024.

Take SLC9A8 isoform 2 (UniProt Q9Y2E8): the log2 fold change was inactive: -0.07.

Take SLC39A14 (UniProt Q15043): the log2 fold change is inactive: -0.015.

Regarding SMAP (UniProt O00193), the log2 fold change is inactive: -0.015.

As for SLC25A51 (UniProt Q9H1U9), the log2 fold change was inactive: -0.036.

For the target SLC7A5 (UniProt Q01650), the log2 fold change is inactive: 0.008.

SLC38A10 (UniProt Q9HBR0): the log2 fold change is inactive: -0.073.

As to SLC25A40 (UniProt Q8TBP6), the log2 fold change was inactive: 0.038.

In the case of SLC6A8 isoform 2 (UniProt P48029), the log2 fold change was inactive: 0.085.
